What was measured:
physchem = conditions: pH 7.4
in vivo = conditions: male, Long-Evans, rat, ip, 10 mg/kg

| SMILES | solubility kinetic (physchem) | Cmax at 8 h (in vivo) |
| --- | --- | --- |
| CCCC(C)COc1ccc([C@H](CN)NC(=O)[C@@H](C)c2ccccc2)cc1 (stereo partly drawn) [Compound 1, (2S)-N-((1R)-2-amino-1-(4-(2-methylpentyloxy)-phenyl)ethyl)-2-phenylpropanamide] | < 1 µM | – |
| CC[C@H](C)COc1ccc([C@H](Cc2nnc(N)o2)NC(=O)[C@@H](C)c2ccccc2)cc1.Cl [Compound 90, (2S)-N-[(1S)-2-(5-Amino-1,3,4-oxadiazol-2-yl)-1-{4-[(2S)-2-methylbutoxy]phenyl}ethyl]-2-phenylpropanamide Hydrochloride] | – | 270 ng/mL |

— paper PMC7737621 (Journal of medicinal chemistry, 2020)
